Measured values as given in PubChem BioAssay AID1347426 (Functional Genomics Laboratory (NCATS/FGL), 2020).
Among all 31,000 sequences or so, about 1,400 (4.5%) were called active.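 How the source made its calls: active means median seed-adjusted z-score above 1 or below -1; inactive means the rest.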 Some of the results follow.

assay: Novel Modifiers of Survival Motor Neuron (SMN) Protein: Gene Identification via Genome-wide siRNA Screen; conditions: HEK293T SMN2-luciferase reporter, siRNA knockdown, 72 h; actives lie on both sides;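 further: luminescence tracks full-length SMN protein made from the SMN2 reporter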
How it was run: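 Genome-wide siRNA screen (10418 genes, 3 siRNAs each, 1 pmol per well) by reverse transfection in HEK293T cells stably carrying an SMN2-luciferase reporter; luminescence after 72 hours, normalized to negative-control siRNA, log10-transformed, MAD-scored.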

Sequence	median seed-adjusted z-score
GCGAUUCACAUGUAGCUUUTT against NR2C1	inactive: 0.386
GGUUUGAUUUUGAUAGCGATT against XPO5	inactive: -0.031
CCUCAAUUUUUGUCUCAGATT against RASSF1	inactive: -0.719
CAAAGAUUCUGACUGAUGATT against GPATCH4	inactive: -0.519
GCUUCUGCAUCAAUCGCAATT against MFNG	inactive: 0.377
CCAAUGUCUUCAUAGCUGATT against DUSP27	inactive: -0.162
AAGCAGCUAUGGGAUUCAATT against SERPINE1	inactive: 0.18
GGAAAUCUACGGGACCAUATT against PRMT8	inactive: 0
CUAUCACUGCAAAGAUUUATT against KLRC1	inactive: 0.171
GAACUACCCUGGUUCAAAATT against GNA15	inactive: 0.582
CCACGAAAGUAUGAUGCAATT against NUFIP1	inactive: -0.673
GGAUAUUGCUCCUUCGUAUTT against SLC17A5	inactive: -0.354
CCUGCAAGCUGUCAACUUUTT against PRKACA	inactive: -0.137
AGAGAACAGUGCAGAAAAATT against NR4A3	inactive: -0.205
GGAUUUCUCUGGACAAGAUTT against UTS2	inactive: 0.0487
CUACGAUCAUUGUUAAAAUTT against QDPR	inactive: -0.734
CGACGGCUGUCAUCAGUUATT against ADCK1	inactive: -0.177
CGACGACGUGCAAGACCAATT against ZNF787	inactive: -0.0628
GGAGCGGGAUAUGACAUAATT against MMAA	inactive: -0.664
CGGGCGUAGUGAUGAGCUUTT against SLC29A4	inactive: 0.0192
GAUUCUUGACAAGAAAUUUTT against PSMD11	inactive: -0.156
GCUUUGCCGUCGGACCAAATT against PKP1	inactive: -0.99

Sequence	median seed-adjusted z-score
GGCCUAAUGGGUUAGCUAUTT against LRP4	inactive: -0.00798
GAGCAAUAGAGAUAUCGAUTT against YOD1	inactive: 0.216
UGACCUAUUUGACCAGAUUTT against MOGAT2	inactive: -0.319
CAUUUAUGACAAUCGGAUATT against OGT	inactive: 0.411
GCAGGAAAGUUUACACCAATT against KLF6	inactive: -0.0398
GCAAUAUUGUCCAGAUGAATT against PSMB2	inactive: 0
CAAGAGUCUCUUUAAGGAATT against ACTL8	inactive: 0
GGAAGAUCUACAUCCGGAATT against KCNQ1	inactive: -0.0525
CCAAUGCCCUCAUGGUUAATT against MORC1	inactive: -0.719
GGAUACCGACAAAUCAGAATT against STK17A	inactive: 0
CAUCAAAUAUGACAACUUUTT against GALNTL4	inactive: 0
GAGUGUGUGCGAAACCUAATT against COMTD1	inactive: 0.0487
GAAAGAUUGUGGACAGCAATT against CACNA1G	inactive: 0.436
CUAUACUCUUCGCUCCUAUTT against SIGMAR1	active: -1.4
ACAUUUAGGUUGUAAACCATT against PLA2G12A	inactive: 0.139
CCAAGUAUCUGGUGGUGAATT against NDUFV1	inactive: -0.653
GACAUUGACAGGUAUAAGATT against GPD2	inactive: 0.0606
GACACGCAAUGGAAGCCUATT against ZDHHC5	inactive: -0.307
AGUUCUGCCGGGCAUCCUATT against IL27RA	inactive: 0.887
GGAUCUUCACCCGAAUACATT against CDH13	inactive: 0
GGUUUGAGGUUGGACUCCATT against ZP3	inactive: 0.495
CCUCAUACCAAGAAGAUAATT against TMPRSS12	inactive: 0.0961

Sequence	median seed-adjusted z-score
GAAUGCAGCAUGUAAAGAATT against GALNT11	inactive: -0.259
AGCUGGUGGUGGGUCAUGATT against ISG20	inactive: 0.0209
CCAACUCAUCGAACACCUUTT against ART5	inactive: -0.354
GUGCUUUGGUGGUACUAUUTT against ELOVL2	inactive: -0.456
GCCUCUAAGAGCUGAGAGATT against PRSS33	inactive: -0.588
GGAAGAAGCACAUCUAUAUTT against GOT1L1	inactive: -0.277
GGUUUGGAGCGAGAGUGGATT against ASB10	inactive: 0
GAACGAGGAGAGAAUUAUATT against IFT140	inactive: -0.0152
GGUGAAUAUUUAUCGUCUATT against CHD1	active: -1.03
GGAAUAGACUUAGAUCGAATT against RAD50	inactive: 0.266
CAUCGAAAGGUGUCUGGAATT against POLRMT	inactive: 0.0812
ACAACUACAUGAUCUGGAATT against ECE1	inactive: -0.344
AGGUAUUUUGGAUCCCGGATT against SEMA3B	inactive: 0.000251
GGAUUGAGGUGGAGAUGGATT against MCM5	inactive: 0.126
GUGUCGUCUUUUUAAUUUUTT against UBE2C	inactive: 0
GGAAGUGAAUGAUGAGAAATT against ESX1	inactive: 0.275
CGUGCACUUUUAUGCAAAUTT against MAP3K7IP1	inactive: 0
GCUGCUAUCAGUGAACGGATT against LIN7A	active: -1.39
CAACGAUGCUAGAAGAAUUTT against PCOLCE2	active: -1.15
GAAGAUUGCUCGUGAUGAATT against SLC25A5	inactive: -0.0501
AGCUACAACUUGAGCCUCATT against LDB3	inactive: 0
GGGCACCUACAUCUACUUUTT against CNOT3	inactive: 0.872

Part of the list above, as labelled records.
CAUCGAAAGGUGUCUGGAATT against POLRMT
  median seed-adjusted z-score: inactive: 0.0812
ACAACUACAUGAUCUGGAATT against ECE1
  median seed-adjusted z-score: inactive: -0.344
AGGUAUUUUGGAUCCCGGATT against SEMA3B
  median seed-adjusted z-score: inactive: 0.000251
GGAUUGAGGUGGAGAUGGATT against MCM5
  median seed-adjusted z-score: inactive: 0.126

Remaining list, next part

Sequence	median seed-adjusted z-score
GGAUUUUAUAGGAAGACGATT against TNFRSF19	inactive: -0.672
ACACUAUGCAAAUCCUGGATT against SOLH	inactive: -0.791
GAAACUAGGAAAUUAGUGATT against SIM2	inactive: -0.19
GAACCUUGGUUUUCAACUUTT against TBC1D5	inactive: 0.38
GUUUCACAGUGGAACUUCATT against ITGA5	inactive: 0.915
GGACAUCCUCGGAAAGUAUTT against ABLIM1	inactive: 0.115
GGAUCUGACAGUUCCAGAATT against CLDN20	inactive: -0.00173
AGACCUGCGUGGUGCACUATT against FKBP1A	inactive: 0.113
GGGUCGACCUAUUUCCGAATT against DYSF	inactive: -0.23
GCUUAAACAUUUAUCACUUTT against GC	inactive: 0.14
CUAUCUCAGCUACAAGUUUTT against FZD2	inactive: -0.0134
CACUGAACGAGCUCCCAAATT against THPO	inactive: -0.0366
CAAUCUAUGCUGAUUAUAUTT against ZMPSTE24	inactive: -0.633
CCGAAGAGUUCAUACCGGATT against ZNF256	inactive: 0.00739
CGAAAGGAGUUUGUCUUCUTT against FOXF1	inactive: -0.148
CCGGCUUCCUCAUUACCUUTT against SLC2A14	active: -1.09
AGUUCAACGCGGUGCCCUUTT against RXFP3	inactive: -0.0651
GGAGGGCUGCUAAAAUGAUTT against HNF1B	inactive: -0.609
GGGCUAUCGUAGUUGCACATT against SLC17A5	inactive: -0.354
AGAAGAUGGUCAGUAUGGATT against ZNF669	inactive: 0.175
AGCACAUCGUGUCUAUCUATT against ANKK1	inactive: -0.288
CAAGUGCGAUAUCACCUUATT against IL4	inactive: -0.192

Sequence	median seed-adjusted z-score
GAGUGGAAAAGACAAGGAUTT against S100P	inactive: -0.00831
GCAUACAUCUCUCUCUCGATT against ZFP62	inactive: -0.255
AGAAGACAACUGCAGAACATT against AGRP	inactive: 0.206
GCAACUCGCAUGCAACUAATT against SALL2	inactive: 0.504
CCUACUAACCAGAUUCAAATT against CLOCK	inactive: -0.338
GUUACUACCUUUGCCGAAATT against MED12L	inactive: -0.0903
CAAAGAUCCCUGACAAGCATT against MAPK8	inactive: 0.316
CAACAUUAGCAAAAUCUUATT against SOX6	inactive: 0.0135
GAGGUGAUCUCAAAGCAAUTT against LIAS	inactive: -0.31
GGAGAUCAUAGCAAACUUUTT against CLDN20	inactive: -0.00173
UUGUGGAUGUUGAACCUAATT against SNRPD1	active: -2.97
GGAAAAAUCUAAGAAGCAATT against ZC3H11A	inactive: -0.137
CGAUAUCUCUGUGUGCGAATT against COX6B1	inactive: -0.706
GAGUAUACCUCGGAGCUGATT against ISYNA1	inactive: 0
GUCCACAACAGGAAACAUATT against ZBTB48	inactive: 0.0461
GGAUGGAACUUGGUUAACATT against SP110	inactive: -0.788
GAGCCUCCGUCUCACCUAUTT against VASN	inactive: 0.213
GGACCAAAAUGAUACGGGATT against PLA2R1	inactive: -0.0304
GUCUGCAAGUGGAUGAUGATT against PSMD9	inactive: 0.266
